The text below walks through data of PMC8786290.

The test addresses T1, Hsp26 (S. cerevisiae (endogenous in BY4741)), P15992.
T1 chain: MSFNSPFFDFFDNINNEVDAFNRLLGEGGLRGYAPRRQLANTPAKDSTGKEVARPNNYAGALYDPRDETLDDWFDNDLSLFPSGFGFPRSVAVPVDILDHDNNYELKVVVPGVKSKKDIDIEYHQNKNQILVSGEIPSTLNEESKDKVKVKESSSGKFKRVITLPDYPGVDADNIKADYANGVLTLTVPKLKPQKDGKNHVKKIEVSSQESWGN
Nature of the test: SEC; cleared BY4741 lysate in non-denaturing lysis buffer with 4 mM MgATP, diluted to 1 mg/ml, HiLoad 16/60 Superdex 200; fractions analysed by SDS-PAGE (Coomassie) and Western blot with Hsp26 antiserum; cells grown in 0.05% glucose. The conditions noted are these: remark: other sources report otherwise. Background: In gel filtration, larger molecules generally elute earlier.

No constants are given. Whether binding was seen depends on the method and setting. Some results given as binding are weak or reduced against the parent protein; the word gives no strength.

B1: Hsp26, P15992 1-214 (protein)
chain: T1 chain
Take B1: the binding result is “binds”.
